We go through 1 molecule from publication doi:10.1101/2021.12.29.474426.

These are yes or no findings as the source states them, for the method shown. Binding seen in cells or lysates may run through a third protein. For part of these data: Binding can be weak; no strength is given.

Holding throughout (assay): pull-down
In test [1] the target is GST-END (wild type EBNA2 N-terminal dimerization domain fused to GST) (Epstein-Barr virus).
For test [2], the target named is GST-END-H15A (END domain H15A missense mutant fused to GST) (Epstein-Barr virus).
Test [3] concerns the target GST-ENDΔα1 (END domain α1-helix deletion mutant fused to GST) (Epstein-Barr virus).

B1: early B cell factor (EBF) 1 (protein, UniProt Q9UH73 1-591)
chain: MFGIQESIQRSGSSMKEEPLGSGMNAVRTWMQGAGVLDANTAAQSGVGLARAHFEKQPPSNLRKSNFFHFVLALYDRQGQPVEIERTAFVGFVEKEKEANSEKTNNGIHYRLQLLYSNGIRTEQDFYVRLIDSMTKQAIVYEGQDKNPEMCRVLLTHEIMCSRCCDKKSCGNRNETPSDPVIIDRFFLKFFLKCNQNCLKNAGNPRDMRRFQVVVSTTVNVDGHVLAVSDNMFVHNNSKHGRRARRLDPSEGTPSYLEHATPCIKAISPSEGWTTGGATVIIIGDNFFDGLQVIFGTMLVWSELITPHAIRVQTPPRHIPGVVEVTLSYKSKQFCKGTPGRFIYTALNEPTIDYGFQRLQKVIPRHPGDPERLPKEVILKRAADLVEALYGMPHNNQEIILKRAADIAEALYSVPRNHNQLPALANTSVHAGMMGVNSFSGQLAVNVSEASQATNQGFTRNSSSVSPHGYVPSTTPQQTNYNSVTTSMNGYGSAAMSNLGGSPTFLNGSAANSPYAIVPSSPTMASSTSLPSNCSSSSGIFSFSPANMVSAVKQKSAFAPVVRPQTSPPPTCTSTNGNSLQAISGMIVPPM
As for B1, the binding entry in test [1] is listed as “binds”; in test [2], “binds”; in test [3] it was “no binding”.
